Reference: PubChem BioAssay AID2685 (National Center for Advancing Translational Sciences (NCATS), 2010)
The list shows a part of the results. The main result of the screen is listed elsewhere. These columns were measured beside it and carry no call. Compounds called inactive in the main read-out are mostly missing here. The note in brackets gives the kind of curve behind each potency; many fits are weak.

Assay: qHTS Assay for Lipid Storage Modulators in Drosophila S3 Cells;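 as to cell number change: cells counted by Cell Tracker Red CMTPX staining in the red channel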
Conditions: BODIPY lipid droplet fluorescence, 18-24 h; for cell number change: measured here: cell count max response, cells fed with added oleic acid
How it was run: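 Drosophila S3 cells loaded with oleic acid (400 uM, as added) and compounds at several concentrations; lipid droplets imaged by 488-nm laser-scanning cytometry, 500–530 nm intensity and object ratio to cell channel. Percent activity normalized to 20 uM Triacsin C.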

[1] = measured here: lipid fluorescence (Fed channel) AC50, cells fed with added oleic acid
[2] = measured here: cell number channel AC50, cells fed with added oleic acid

Compound	cell number change [%]	AC50 [1]	AC50 [2]
O=C(COC(=O)CCNS(=O)(=O)c1ccc(Cl)cc1)NCc1ccco1	-0.403	18.4 nM [falling, full curve, poor fit]	
COc1ccc(/C=C(\C#N)C(=O)NC(C)c2ccccc2)cc1O (configuration not stated)	10.4	580 nM [rising, single point]	
Cc1ccc(S(=O)(=O)N2CCN(C(=O)COC(=O)/C=C/c3ccccc3)CC2)c(C)c1	13.4	9200 nM [rising, partial curve]	
COC(=O)c1cn(-c2ccc(Cl)cc2)c(=O)c2ccccc12	-14.3	580 nM [falling, single point]	
CCOC(=O)C1CCN(C(=O)c2ccc(Cl)c(S(=O)(=O)N3CCCC3)c2)CC1	-0.867	29100 nM [rising, single point]	
Cc1nc(CSc2nc3[nH]ncc3c(=O)n2-c2ccccc2)cs1	7.28	4610 nM [rising, partial curve, poor fit]	
COc1ccc(OC)c(NC(=O)CSc2nc3nc(C)cc(C)n3n2)c1	24.4	146 nM [rising, full curve, poor fit]	
COc1cccc(Oc2ccc(N)cc2)c1		6510 nM [falling, single point]	4.61 nM [falling, full curve, poor fit]
Cc1nc(-c2ccccn2)nc(SCC(=O)c2ccc(F)cc2)c1Cl		184 nM [rising, full curve, poor fit]	103 nM [rising, full curve, poor fit]
Fc1ccc(-c2cc(C(F)(F)F)nc(-n3cccn3)n2)cc1	13.8	366 nM [rising, full curve, poor fit]	116 nM [rising, full curve, poor fit]
O=C(c1cccc(Cl)c1)N1CCCC(c2ccc(Cl)cc2)=N1	-39.7	7310 nM [falling, partial curve]	7310 nM [falling, partial curve]
Cc1ccsc1C(=O)Nc1ccc(S(=O)(=O)N2CCOCC2)cc1	5.66	4.61 nM [rising, full curve, poor fit]	
Cc1csc(SCC(=O)Nc2ccccn2)n1	-13.4	3260 nM [falling, single point]	
COC1CCN(C(=O)c2ccc3oc(C(C)C)nc3c2)CC1	2.67		
CCOc1ccccc1OCC(=O)OCC(=O)c1c(N)n(CC(C)C)c(=O)n(C)c1=O	21.4	18400 nM [rising, single point]	
O=C1C2ON(c3ccccc3)C(c3ccccn3)C2C(=O)N1c1ccc(Br)cc1 (configuration not stated)	0.807	23100 nM [rising, single point]	

Compound	cell number change [%]	AC50 [1]	AC50 [2]
Cc1ccccc1C(=O)NC1CC(C)(C)NC(C)(C)C1	-7.54	25900 nM [falling, partial curve]	
COc1cc(NC(=O)CCS(=O)(=O)c2ccc3c(c2)oc(=O)n3C)cc(OC)c1	-3.24	517 nM [rising, full curve]	
CCCN(CCC)CCNc1c(N2CCN(C(=O)OCC)CC2)c(=O)c1=O	5.5	731 nM [falling, full curve]	
COC(=O)[C@H](C)NC(=O)Nc1cccc(C)c1	5.72	5.8 nM [falling, full curve, poor fit]	
CCOC(=O)C/C(N)=N/N(C)c1ncc(C(F)(F)F)cc1Cl			580 nM [falling, single point]
NS(=O)(=O)c1ccc(NC(=O)CN2C(=O)c3ccccc3C2=O)cc1	-12.3		
Cc1cc(C(=O)N/N=C2\CCCc3ccccc32)c(C)o1	3.44	7310 nM [rising, partial curve]	
O=S(=O)(c1ccc2nc(-c3ccccc3)[nH]c2c1)N1CCN(c2cccc(Cl)c2)CC1	28.7		
O=C(O)c1ccc(O)c2ncccc12	-18.6	731 nM [falling, full curve, poor fit]	51.7 nM [falling, full curve, poor fit]
CC(C)(C)C1CCC(C(=O)OCC(=O)N2CCN(C(=O)c3ccco3)CC2)CC1 (configuration not stated)			6510 nM [rising, single point]
O=S(=O)(c1ccccc1)c1nc(-c2ccco2)oc1Nc1ccccc1	-2.74		
COc1ccc(NC(=O)CN(CC(=O)Nc2ccc(OC)cc2)C(C)(C)CO)cc1	54.2		
COCC(=O)Nc1ccc([N+](=O)[O-])cc1OC	-83.3		29100 nM [falling, single point]
COc1ccc(-c2csc(NC3CCCCC3)n2)c(OC)c1	-22.9		
Cc1ccccc1N1C(=O)CSC1=C(C#N)C#N		326 nM [falling, full curve]	4.61 nM [falling, full curve, poor fit]

Looked up one by one from the entries so far, 2 records:
Compound	cell number change [%]	AC50 [1]	AC50 [2]
NS(=O)(=O)c1ccc(NC(=O)CN2C(=O)c3ccccc3C2=O)cc1	-12.3		
CC(C)(C)C1CCC(C(=O)OCC(=O)N2CCN(C(=O)c3ccco3)CC2)CC1 (configuration not stated)			6510 nM [rising, single point]
